Experimental data as given in paper PMC2265536.
Results are given in words; binding and its absence hold for the method and conditions named. Binding seen in cells or lysates may run through a third protein. Binding can be weak; no strength is given.

Biological target: Drosophila Rsf-1 (D. melanogaster (endogenous in embryos))
Assay: co-IP; Drosophila embryonic nuclear extracts (about 200 ug protein); antibodies coupled to Protein-G Agarose; 20 mM Tris-HCl pH 7.9, 0.5 mM EDTA, 150 mM NaCl, 10% glycerol, 3 h at 4 C; washes with 0.01% NP-40; western blot; dRsf-1/ISWI also with 80 ug/ml ethidium bromide

Row | Binder | binding
1 | dMRG15 (protein, UniProt Q9Y0I1 1-424) MGEVKPAKVENYSTGTDANTLFVDGERVLCFHGPLIYEAKVLKTKPDATPVEYYIHYAGWSKNWDEWVPENRVLKYNDDNVKRRQELARQCGERSKKDNKKGSAKAKKMEQMRNESRASTPSKDSNTSQSTASSTPTTSAGPGSKSEAGSTGTTTTNSTANSTTSRAHRKSTQSTPSTARPGTPSDKKEDPAAAETTEEEGPVAPKKKRMSEQRPSLTGSDVAEKPLPPTTTPSTPTTEPAPCVESEEAYAAKVEVKIKIPDELKHYLTDDWYAVVREHKLLELPAKVTVQQISEQYLAHKKSVKSTSASKEVAINDVLDGIVEYFNVMLGSQLLYKFERTQYADVMQKHPDTPLSELYGSFHLLRLFVRLGSMLSYSALDQQSMQNLLTHVQDFLKFLVKNSSIFFSMSNFINVDPEYVRNAQ | binds
2 | E(Pc) (protein, UniProt Q9VDC6 1-879) MGSLPQLSIVKGLQQDFVPRALHRIFEEQQLRHADKVALIYQPSTTGQGMAPSQSSYRQMNERANRAARLLVAETHGRFLQPNSDGDFIVAVCMQPSEGLVTTLLAIWKAGGAYLPIDPSFPANRIHHILLEAKPTLVIRDDDIDAGRFQGTPTLSTTELYAKSLQLAGSNLLSEEMLRGGNDHIAIVLYTSGSTGVPKGVRLPHESILNRLQWQWATFPYTANEAVSVFKTALTFVDSIAELWGPLMCGLAILVVPKAVTKDPQRLVALLERYKIRRLVLVPTLLRSLLMYLKMEGGGAAQKLLYNLQIWVCSGEPLSVSLASSFFDYFDEGVHRLYNFYGSTEVLGDVTYFACESKKQLSLYDNVPIGIPLSNTVVYLLDADYRPVKNGEIGEIFASGLNLAAGYVNGRDPERFLENPLAVEKKYARLYRTGDYGSLKNGSIMYEGRTDSQVKIRGHRVDLSEVEKNVAELPLVDKAIVLCYHAGQVDQAILAFVKLRDDAPMVTEMQMEARLKDKLADYMTPQVVILEHVPLLVNGKVDRQALLKTYETANNNEGDSSIVLDFDYSQVPEDLKLTARDLFETVGGVIGRSTRATLAPHSNFYELGGNSLNSIFTVTLLREKGYNIGISEFIAAKNLGEIIEKMAANHDAVQLEEESLNACPHLKMEAVPLRLEHRQEVIDIIVASFYNKADLEQWLKPGVLRTDYSDILNDIWNVLVERDLSFVVYDTNTDRIIGTALNFDARNEPEVDIKSKLLIVFEFLEFCEGPIRDNYLPKGLNQILHSFMMGTAEKLNPRENIACMHFMEHEVLRVAREKQFAGIFTTNTSPLTQQLADVYHYKTLLNFQVNEYVHSDGSRPFGDAPDEQRAIVHWKEVGK | binds
